Paper PMC3393700, “Localization and Sub-Cellular Shuttling of HTLV-1 Tax with the miRNA Machinery” (PLoS ONE, 2012)
Results are given in words; binding and its absence hold for the method and conditions named. In cells and extracts the contact can be indirect. Some entries that bind do so weakly or less than the wild type.

Legend:
[1] = biological target: HTLV-1 Tax, wild type, expressed in 293T cells (HTLV-1) (UniProt P03409); experiment: co-IP; 293T whole cell extracts (~1 mg) of cells transfected with pACH.Tax or pACH.M22 in the presence of the proteasome inhibitor PSI (10 µM); IP with α-Tax overnight at 4°C, Protein A+G beads, washes with TNE150 and TNE50 + 0.1% NP-40; western blot for Drosha
[2] = biological target: GST-Tax wild type (HTLV-1) (UniProt P03409); experiment: pull-down; GST-Tax fusion proteins bound to glutathione-Sepharose beads incubated with HeLa whole cell extract (1 mg) in TNE50 + 0.1% NP-40 overnight at 4°C; washed with TNE150 + 0.1% NP-40 and TNE50 + 0.1% NP-40; western blot for Drosha; only the target purified
[3] = biological target: GST-Tax N-terminus, 1–244 (HTLV-1) (UniProt P03409); experiment: as above

Row | Molecule | binding [1] | binding [2] | binding [3]
1 | Drosha (endogenous, 293T cell lysate) (from UniProt Q9NRR4 1-1374) (enzyme) | binds |  | 
2 | Drosha (endogenous, 293T cell lysate) (enzyme, human (endogenous in 293T), UniProt Q9NRR4 1-1374, looked up) MMQGNTCHRMSFHPGRGCPRGRGGHGARPSAPSFRPQNLRLLHPQQPPVQYQYEPPSAPSTTFSNSPAPNFLPPRPDFVPFPPPMPPSAQGPLPPCPIRPPFPNHQMRHPFPVPPCFPPMPPPMPCPNNPPVPGAPPGQGTFPFMMPPPSMPHPPPPPVMPQQVNYQYPPGYSHHNFPPPSFNSFQNNPSSFLPSANNSSSPHFRHLPPYPLPKAPSERRSPERLKHYDDHRHRDHSHGRGERHRSLDRRERGRSPDRRRQDSRYRSDYDRGRTPSRHRSYERSRERERERHRHRDNRRSPSLERSYKKEYKRSGRSYGLSVVPEPAGCTPELPGEIIKNTDSWAPPLEIVNHRSPSREKKRARWEEEKDRWSDNQSSGKDKNYTSIKEKEPEETMPDKNEEEEEELLKPVWIRCTHSENYYSSDPMDQVGDSTVVGTSRLRDLYDKFEEELGSRQEKAKAARPPWEPPKTKLDEDLESSSESECESDEDSTCSSSSDSEVFDVIAEIKRKKAHPDRLHDELWYNDPGQMNDGPLCKCSAKARRTGIRHSIYPGEEAIKPCRPMTNNAGRLFHYRITVSPPTNFLTDRPTVIEYDDHEYIFEGFSMFAHAPLTNIPLCKVIRFNIDYTIHFIEEMMPENFCVKGLELFSLFLFRDILELYDWNLKGPLFEDSPPCCPRFHFMPRFVRFLPDGGKEVLSMHQILLYLLRCSKALVPEEEIANMLQWEELEWQKYAEECKGMIVTNPGTKPSSVRIDQLDREQFNPDVITFPIIVHFGIRPAQLSYAGDPQYQKLWKSYVKLRHLLANSPKVKQTDKQKLAQREEALQKIRQKNTMRREVTVELSSQGFWKTGIRSDVCQHAMMLPVLTHHIRYHQCLMHLDKLIGYTFQDRCLLQLAMTHPSHHLNFGMNPDHARNSLSNCGIRQPKYGDRKVHHMHMRKKGINTLINIMSRLGQDDPTPSRINHNERLEFLGDAVVEFLTSVHLYYLFPSLEEGGLATYRTAIVQNQHLAMLAKKLELDRFMLYAHGPDLCRESDLRHAMANCFEALIGAVYLEGSLEEAKQLFGRLLFNDPDLREVWLNYPLHPLQLQEPNTDRQLIETSPVLQKLTEFEEAIGVIFTHVRLLARAFTLRTVGFNHLTLGHNQRMEFLGDSIMQLVATEYLFIHFPDHHEGHLTLLRSSLVNNRTQAKVAEELGMQEYAITNDKTKRPVALRTKTLADLLESFIAALYIDKDLEYVHTFMNVCFFPRLKEFILNQDWNDPKSQLQQCCLTLRTEGKEPDIPLYKTLQTVGPSHARTYTVAVYFKGERIGCGKGPSIQQAEMGAAMDALEKYNFPQMAHQKRFIERKYRQELKEMRWEREHQEREPDETEDIKK |  | binds | binds
